{"sequences": {"note": "The chains behind the UniProt entries cited, without tags or fusion partners.", "UniProt Q0JBA9, entry or part of it": "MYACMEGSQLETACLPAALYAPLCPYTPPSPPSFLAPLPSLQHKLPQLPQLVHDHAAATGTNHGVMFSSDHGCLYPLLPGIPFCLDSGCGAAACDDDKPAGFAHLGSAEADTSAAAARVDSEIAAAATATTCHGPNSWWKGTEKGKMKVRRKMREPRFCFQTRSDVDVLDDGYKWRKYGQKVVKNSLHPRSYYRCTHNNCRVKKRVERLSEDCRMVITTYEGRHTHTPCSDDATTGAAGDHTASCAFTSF"}, "source": "paper PMC7819943", "about": "“Rice protein-binding microarrays: a tool to detect cis-acting elements near promoter regions in rice”", "note": "Some of the results follow.", "data": [{"target": "OsWRKY34 (Oryza sativa, UniProt Q0JBA9 1-250)", "assay": "protein-binding microarray (RPBM); PBS, 2% BSA, 51.3 ng/ul salmon testes DNA, 50 uM zinc acetate, 200 nM TF, 25 C, 1 h; high values mean tight binding", "conditions": "protein: recombinant; tags: N-terminal polyhistidine and DsRed monomer fusion (pET32a); label: CyDye5-dUTP incorporated in the synthesized complementary strand; 3' TTTTT single-stranded linker to array surface; dsDNA, one strand shown", "summary_of_the_method": "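An Axon 4000B scanner gave the binding signal as per-feature fluorescence intensity in arbitrary units. This followed washing of a custom Agilent array that had been incubated for 1 h at 25 °C with 200 nM protein in PBS, 2% BSA, salmon testes DNA and 50 µM zinc acetate. The proteins were transcription factors fused at the N-terminus to polyhistidine and DsRed, expressed in E. coli BL21-CodonPlus and purified on Ni–NTA.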", "values": [{"sequence": "AATTGGATCGTCACTGGTTAACCCTAAACCTACCGTTTTTCGGAGTCACCTAGTGCAG", "binding signal": "9770 fluorescence intensity (a.u.)"}, {"sequence": "ATTCTTTGCTAGGTATATACATCTGCAGTGCGTTCGCAAACGGAGTCACCTAGTGCAG", "binding signal": "8180 fluorescence intensity (a.u.)"}, {"sequence": "TTCCTAGCTTTTAAGTTTGACCAAATCTCTATTATTATAACGGAGTCACCTAGTGCAG", "binding signal": "8350 fluorescence intensity (a.u.)"}, {"sequence": "ACTCCGGATCTCTGCGCCACACCACTCATCAGCTCGCTCTCGGAGTCACCTAGTGCAG", "binding signal": "11900 fluorescence intensity (a.u.)"}, {"sequence": "CACCAACTCATTCTTACACCTACACCTACGTATTCATTCACGGAGTCACCTAGTGCAG", "binding signal": "8130 fluorescence intensity (a.u.)"}, {"sequence": "CCCTACTGATCAGATTATCATGGCACACTTTAGCTCATTGCGGAGTCACCTAGTGCAG", "binding signal": "9340 fluorescence intensity (a.u.)"}, {"sequence": "TGTTGTATGGGTTGTTCGGGCTCTAATAAAGAAACTAATTCGGAGTCACCTAGTGCAG", "binding signal": "9090 fluorescence intensity (a.u.)"}, {"sequence": "TTTTTTCTTTACTTTGCGCCCGGCCATTGTAAGGTCCGCACGGAGTCACCTAGTGCAG", "binding signal": "8760 fluorescence intensity (a.u.)"}, {"sequence": "TTTTCAGCTGTCGCTTCATACCAGGGTTAAATCTCGCGGTCGGAGTCACCTAGTGCAG", "binding signal": "9510 fluorescence intensity (a.u.)"}, {"sequence": "TTAATATTTTATGCGTGACTTGTCTTTTTAATTTTTTTCACGGAGTCACCTAGTGCAG", "binding signal": "11900 fluorescence intensity (a.u.)"}, {"sequence": "CAACTGAACTTTCATCCTTTCGTTCCTACAGTTCGTCAGTCGGAGTCACCTAGTGCAG", "binding signal": "14200 fluorescence intensity (a.u.)"}, {"sequence": "TCTTCCTCTCCATTCCATTGGCCATTCCATTCCATTCCACCGGAGTCACCTAGTGCAG", "binding signal": "9960 fluorescence intensity (a.u.)"}, {"sequence": "GTGGAAGGGGTGGGCAATTAGCTAGAGCAGCAGGTGCTGTCGGAGTCACCTAGTGCAG", "binding signal": "8830 fluorescence intensity (a.u.)"}, {"sequence": "CACTTGCATATTGAGCTTTAGGAGTTAGTGAACATTAACTCGGAGTCACCTAGTGCAG", "binding signal": "8860 fluorescence intensity (a.u.)"}, {"sequence": "TCGATTCCGCTTCGATATCCAACTCTATCTTGTCAAATTTCGGAGTCACCTAGTGCAG", "binding signal": "8310 fluorescence intensity (a.u.)"}, {"sequence": "CAAACACATACAGCAGCATCACCAGCTCAGTTAATTGCAACGGAGTCACCTAGTGCAG", "binding signal": "8250 fluorescence intensity (a.u.)"}, {"sequence": "TCTCTACATAATGTGCCTTCACTGAACCAGTGTAATTTCTCGGAGTCACCTAGTGCAG", "binding signal": "10400 fluorescence intensity (a.u.)"}, {"sequence": "GTGTTTACTTTTCTACTTCTTCTGTCCTAAAAATATATATCGGAGTCACCTAGTGCAG", "binding signal": "9640 fluorescence intensity (a.u.)"}, {"sequence": "TCATAGTGGTTTTCCCATCCAAATACCTGTTGGCCATTCGCGGAGTCACCTAGTGCAG", "binding signal": "8380 fluorescence intensity (a.u.)"}, {"sequence": "CACGCGGGTGGGCGGGTCGGGTCTCCTCTCGCCGAAGCGCCGGAGTCACCTAGTGCAG", "binding signal": "12400 fluorescence intensity (a.u.)"}, {"sequence": "TGATGTGGATCTGCCAGCTACTTCTTCCGTGGTTTACTGCCGGAGTCACCTAGTGCAG", "binding signal": "8500 fluorescence intensity (a.u.)"}, {"sequence": "CCCACCACTCTGCGCCGCCCCACCGTCGCTTGCCCTTTTGCGGAGTCACCTAGTGCAG", "binding signal": "10600 fluorescence intensity (a.u.)"}, {"sequence": "GCTCCTTCTAGCTCCTGCTGCTTTGTTGTCTTCAGATGGACGGAGTCACCTAGTGCAG", "binding signal": "13200 fluorescence intensity (a.u.)"}, {"sequence": "GCCACCGGAAGTACTCCTACGCCCTAACTTTACGTATACCCGGAGTCACCTAGTGCAG", "binding signal": "8150 fluorescence intensity (a.u.)"}, {"sequence": "TCACCATCTCGACTCAGCCAATCCATTTCTAAATTTTATACGGAGTCACCTAGTGCAG", "binding signal": "8690 fluorescence intensity (a.u.)"}, {"sequence": "TTAATCTTATAATTACGGTCATGTGGTTTTGTGAAATTTACGGAGTCACCTAGTGCAG", "binding signal": "8560 fluorescence intensity (a.u.)"}, {"sequence": "GTACACCGAAAGAAACCAACTCGTGTCCATCCATCCGTCTCGGAGTCACCTAGTGCAG", "binding signal": "8070 fluorescence intensity (a.u.)"}, {"sequence": "ATGGGTTGTGCTGTTCTAGCTTCTATACGTGTCGAATCATCGGAGTCACCTAGTGCAG", "binding signal": "9100 fluorescence intensity (a.u.)"}, {"sequence": "TCTGCTTTGTTAGCTCTCGGAGTCTCGGTTCGTCCTCGCGCGGAGTCACCTAGTGCAG", "binding signal": "8130 fluorescence intensity (a.u.)"}, {"sequence": "TTTCGCCTACCGCACTCACTGCTCACAACCACCGAATCCTCGGAGTCACCTAGTGCAG", "binding signal": "9500 fluorescence intensity (a.u.)"}, {"sequence": "CGTTGTTGTGTTTCTCTCCACTTCACTGTGCTGCTGTTCGCGGAGTCACCTAGTGCAG", "binding signal": "9220 fluorescence intensity (a.u.)"}, {"sequence": "TTAAAAAGTCAACGGCGTTATACATTAAAGAGATAATCCACGGAGTCACCTAGTGCAG", "binding signal": "8670 fluorescence intensity (a.u.)"}, {"sequence": "TGGCACATTCTCATCGTATTTTCTTGTTGCTCTATGTATGCGGAGTCACCTAGTGCAG", "binding signal": "8860 fluorescence intensity (a.u.)"}, {"sequence": "GTTCTGTATATATCTCTTTCCCTATCCCTCCGTATTAATCCGGAGTCACCTAGTGCAG", "binding signal": "9380 fluorescence intensity (a.u.)"}, {"sequence": "CTTGCTGTTTGTATAACATCTTGTTTCTGTTTCAGGTATGCGGAGTCACCTAGTGCAG", "binding signal": "9280 fluorescence intensity (a.u.)"}, {"sequence": "TTTCATCCGTATTGTTCCGCTTCCGGTTTTCTGATATTTTCGGAGTCACCTAGTGCAG", "binding signal": "14100 fluorescence intensity (a.u.)"}, {"sequence": "GTAGTTAGTTAGGTTGTTAGTCGTGTGAGCTGCATGTATACGGAGTCACCTAGTGCAG", "binding signal": "8700 fluorescence intensity (a.u.)"}, {"sequence": "TGGTTCTTGCTCTTGTTCTTGCTGCTGCTGCTTTTGCTCTCGGAGTCACCTAGTGCAG", "binding signal": "9380 fluorescence intensity (a.u.)"}, {"sequence": "GCTTTAAAATGGAGATGGGTATGGTAGGCAATCAATTTCCCGGAGTCACCTAGTGCAG", "binding signal": "10200 fluorescence intensity (a.u.)"}, {"sequence": "TGTAATTGTTTTTTCGTCCACATTTAGTGCTCCATGTATACGGAGTCACCTAGTGCAG", "binding signal": "9780 fluorescence intensity (a.u.)"}, {"sequence": "TTTTTTGGTTGTTGATATGATGTTCTTTTTTCCTCATTCTCGGAGTCACCTAGTGCAG", "binding signal": "8990 fluorescence intensity (a.u.)"}, {"sequence": "TGATTTTTTTTTTGTTTCACAGTGCACAGACCAATGTTTCCGGAGTCACCTAGTGCAG", "binding signal": "8320 fluorescence intensity (a.u.)"}]}]}
